The values below come from PMC7819943, “Rice protein-binding microarrays: a tool to detect cis-acting elements near promoter regions in rice”.

Protein sequences, listed by entry. Tags and fused reporters are not part of them.
UniProt Q0JBA9, entry or part of it: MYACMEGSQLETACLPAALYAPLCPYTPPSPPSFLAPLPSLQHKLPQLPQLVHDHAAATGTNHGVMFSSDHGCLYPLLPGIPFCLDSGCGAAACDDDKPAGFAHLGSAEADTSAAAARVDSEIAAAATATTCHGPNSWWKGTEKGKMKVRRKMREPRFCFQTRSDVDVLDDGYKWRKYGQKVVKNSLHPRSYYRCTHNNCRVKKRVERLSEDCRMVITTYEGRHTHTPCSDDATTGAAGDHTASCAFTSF

The other results are listed elsewhere or left out.

In this experiment the target is OsWRKY34 (Oryza sativa, UniProt Q0JBA9 1-250). Nature of the experiment: protein-binding microarray (RPBM); PBS, 2% BSA, 51.3 ng/ul salmon testes DNA, 50 uM zinc acetate, 200 nM TF, 25 C, 1 h; high values mean tight binding. To be noted: protein: recombinant; tags: N-terminal polyhistidine and DsRed monomer fusion (pET32a); label: CyDye5-dUTP incorporated in the synthesized complementary strand; 3' TTTTT single-stranded linker to array surface; dsDNA, one strand shown. The method, boiled down:
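Using Ni–NTA, transcription factors fused N-terminally to polyhistidine and DsRed were purified after expression in E. coli BL21-CodonPlus. These were incubated at 200 nM with a blocked, double-stranded custom Agilent array for 1 h at 25 °C in a buffer containing 50 µM zinc acetate, and the array was washed. The binding signal is per-feature fluorescence intensity (arbitrary units) on an Axon 4000B scanner.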
Turning to “TCTCCGCCGTGTTCCTCCCGCCCGCCGCCGCCTTCCCGCCCGGAGTCACCTAGTGCAG”, the binding signal is 10400 fluorescence intensity (a.u.).

On to “CCTTCGATTGACCTCCTCATCCTCTTCCCCTGCTTTCTTTCGGAGTCACCTAGTGCAG”, for which the binding signal was 9720 fluorescence intensity (a.u.).

Turning to “TTTTGAGTTTTTGTGTGAACTGTTTGACCACTCGTCTTATCGGAGTCACCTAGTGCAG”, the binding signal was 8250 fluorescence intensity (a.u.).

With “CGCGGGGAGGGAGGGAGGGAAGGAGAGGAGGAAGAGGATGCGGAGTCACCTAGTGCAG”, the binding signal is 9410 fluorescence intensity (a.u.).

For the sequence “ATGTGCTATTTTCCTTTGTTTTTCCTTTTATGTTATTTTTCGGAGTCACCTAGTGCAG”, the binding signal is 14900 fluorescence intensity (a.u.).

As for “CCTCCTCACCACCACCACCACCATATATTCCCTTGCACACCGGAGTCACCTAGTGCAG”, the binding signal is 9320 fluorescence intensity (a.u.).

As to “ACACAACCCAAGTGAGCACTAGCTTTATATTACCCGCGTCCGGAGTCACCTAGTGCAG”, the binding signal is 9410 fluorescence intensity (a.u.).

As for “GCCTGGTTTTATAAGTTGTGGGATGGGTTATATCTAGTATCGGAGTCACCTAGTGCAG”, the binding signal is 28800 fluorescence intensity (a.u.).

With “GTGTTCCAATTGGCTCCACTCTTGGTGTATGATGCTTTCACGGAGTCACCTAGTGCAG”, the binding signal was 8170 fluorescence intensity (a.u.).

Regarding “CCTGACGCAACCTTTTGTCCTTATTGCTGGGTTCCTCTTGCGGAGTCACCTAGTGCAG”, the binding signal is 8070 fluorescence intensity (a.u.).

Take “CGTCCCTTGGACGTCATCTTCTCCTCACGTGCATTGCCTCCGGAGTCACCTAGTGCAG”: the binding signal was 8520 fluorescence intensity (a.u.).

Turning to “GCGCCTCCGCCTGCGCGCCCGGCACGCACACTCGCGTCGCCGGAGTCACCTAGTGCAG”, the binding signal is 8090 fluorescence intensity (a.u.).

Regarding “GCCCCTTCTTCATGCGCCACCGCCGCCTCCTCGTTCTTCCCGGAGTCACCTAGTGCAG”, the binding signal is 8860 fluorescence intensity (a.u.).

As to “GATAGAAAGGGGTCAAAATGGCAAGGGGCTATTTGGTAATCGGAGTCACCTAGTGCAG”, the binding signal is 8200 fluorescence intensity (a.u.).

As for “CAAATCTGTATATAGATCGAGCCTCTTATTCTGCTTCTTCCGGAGTCACCTAGTGCAG”, the binding signal was 10200 fluorescence intensity (a.u.).

Take “CCCTTACATCTCTCCATTGTTCTTTTTGCTCTCTTTCAAACGGAGTCACCTAGTGCAG”: the binding signal was 10400 fluorescence intensity (a.u.).

Take “AATATTAGGAGGTGGGATTTTCTGTCACTAGATATGTAGACGGAGTCACCTAGTGCAG”: the binding signal is 8900 fluorescence intensity (a.u.).

For “ACGTTTTTCCTGCGCTCCAATCAATCGACCATTCCTATGTCGGAGTCACCTAGTGCAG”, the binding signal was 8050 fluorescence intensity (a.u.).

As for “GCGTGCAACATGTTCCTCTTTGCGTTCGATCCTTCAAGTTCGGAGTCACCTAGTGCAG”, the binding signal is 11300 fluorescence intensity (a.u.).

With “TCGGCATCTCTCCTGCGCGGGCGAGTCGTCCTCCTCGTCCCGGAGTCACCTAGTGCAG”, the binding signal was 8110 fluorescence intensity (a.u.).

Regarding “TCTGGTGTGTTTGTATGGATGGGGTGATGTCCATGGGAGACGGAGTCACCTAGTGCAG”, the binding signal was 11100 fluorescence intensity (a.u.).

With “TAATATACTCTCTATCATAGGTGGTGTTCTTTTCTCCTAACGGAGTCACCTAGTGCAG”, the binding signal is 9610 fluorescence intensity (a.u.).

Take “TTTACACTTACATTCCTATTAAAATCCTACGTTTTTCCTGCGGAGTCACCTAGTGCAG”: the binding signal was 9400 fluorescence intensity (a.u.).

In the case of “ATTGTAACATAATTATCACTCCTAGGTTTATTTTCAAGCACGGAGTCACCTAGTGCAG”, the binding signal was 8270 fluorescence intensity (a.u.).

Take “GGGGTTGGCCAATGGATGAATCGGGTCATTTTATCCGCTCCGGAGTCACCTAGTGCAG”: the binding signal was 9330 fluorescence intensity (a.u.).

On to “GGGTGGGATGGATTGGTCCTAGGAGAGGAATATTCCTCTCCGGAGTCACCTAGTGCAG”, for which the binding signal is 8460 fluorescence intensity (a.u.).

“TACGTCAACCGTCTCCATCCACTCAAACAGCGGGCTAAAACGGAGTCACCTAGTGCAG”: the binding signal is 8410 fluorescence intensity (a.u.).

Regarding “GGAGGGGCGGTGGCCGCCGGCGGCCCGCGCGGCGGGAGCGCGGAGTCACCTAGTGCAG”, the binding signal is 9240 fluorescence intensity (a.u.).

Consider “TTGCTGTCTCTGCTTCGTTGCTGCCATCCTATCTTAAGTCCGGAGTCACCTAGTGCAG”, for which the binding signal was 8960 fluorescence intensity (a.u.).

For “TCAGGTTATAAGACGTTTTGACTTTGGCCAAAGTCAAACTCGGAGTCACCTAGTGCAG”, the binding signal is 9340 fluorescence intensity (a.u.).

For the sequence “AAAAGTTCTTCAGAGTTGGTCGATCAATCTCTCTTTATTTCGGAGTCACCTAGTGCAG”, the binding signal was 8700 fluorescence intensity (a.u.).

In the case of “GCTTCGACGTGTCCGTGCCACGTGCCGTCCCTCCATTCGCCGGAGTCACCTAGTGCAG”, the binding signal was 8530 fluorescence intensity (a.u.).

In the case of “GAGTGCCATTGAATCCTTCTGTTGCGTTGACCACCAAATGCGGAGTCACCTAGTGCAG”, the binding signal was 16500 fluorescence intensity (a.u.).

With “GGAGGGAGGGAGTATCAATCATTTGAAGAGTTCAGTGACACGGAGTCACCTAGTGCAG”, the binding signal was 8430 fluorescence intensity (a.u.).

Turning to “CCGCCGGCGGCGTCGACCTCACCCCGGCCGCCGCGCGGCGCGGAGTCACCTAGTGCAG”, the binding signal was 9490 fluorescence intensity (a.u.).

For the sequence “GTGTTGCGATGGATGGTTACAGAGAGTGAGAAGAGTTGACCGGAGTCACCTAGTGCAG”, the binding signal was 8920 fluorescence intensity (a.u.).

“GCGCCGTCCCTTCGGGCCCACAAGCCGTCCACCCACTTCCCGGAGTCACCTAGTGCAG”: the binding signal was 11300 fluorescence intensity (a.u.).

With “TATACTACTGAAAATTGGCTCTTTCCTTATATGCCATTGACGGAGTCACCTAGTGCAG”, the binding signal was 9200 fluorescence intensity (a.u.).

As for “TCCCTTTTGAGTACCACTGCTGATATCTGGATGCCCGTCACGGAGTCACCTAGTGCAG”, the binding signal was 8080 fluorescence intensity (a.u.).

Consider “ACCCGCACGCCCTCGCCGCCATGTCGTCCGCCACCGCCGCCGGAGTCACCTAGTGCAG”, for which the binding signal is 8230 fluorescence intensity (a.u.).

Take “CCACACCCTTCGTCTCCATCACTCATCCCCAAATCCAACCCGGAGTCACCTAGTGCAG”: the binding signal was 8100 fluorescence intensity (a.u.).

For the sequence “TATTGTGTACTACATCTTTTATTATTTCTTTCAAATTTCACGGAGTCACCTAGTGCAG”, the binding signal was 10500 fluorescence intensity (a.u.).
